In publication PMC7816512:
No constants are given. Whether binding was seen depends on the method and setting. In cells and extracts the contact can be indirect. Here binding means that the protein was enriched with, or labelled near, the bait; the list need not be complete. Tags and fused reporters may be left off the sequences shown.

T1: FLAG-HA-Rbm10 (S. pombe) (UniProt P87143)
T1 sequence: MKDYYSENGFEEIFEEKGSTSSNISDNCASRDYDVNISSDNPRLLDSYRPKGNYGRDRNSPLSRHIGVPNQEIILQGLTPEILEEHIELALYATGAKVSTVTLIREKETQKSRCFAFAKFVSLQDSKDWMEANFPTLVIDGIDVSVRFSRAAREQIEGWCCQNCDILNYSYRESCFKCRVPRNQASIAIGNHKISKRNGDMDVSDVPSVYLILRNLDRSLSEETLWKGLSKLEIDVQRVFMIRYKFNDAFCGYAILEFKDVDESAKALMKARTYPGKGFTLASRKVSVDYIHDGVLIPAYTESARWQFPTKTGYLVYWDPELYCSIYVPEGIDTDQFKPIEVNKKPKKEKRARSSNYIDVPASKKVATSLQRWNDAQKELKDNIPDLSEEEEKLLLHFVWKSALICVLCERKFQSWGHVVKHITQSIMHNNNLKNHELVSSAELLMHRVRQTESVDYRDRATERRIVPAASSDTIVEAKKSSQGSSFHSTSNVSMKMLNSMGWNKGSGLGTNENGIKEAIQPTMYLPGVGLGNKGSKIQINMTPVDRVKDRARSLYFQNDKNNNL

B1: Cwf10 (protein, UniProt O94316 1-984)
chain: MMEEDLYDEFGNYIGPENEEDEEELFPQAPSPTIAQVPSFEEVIPDEELEDVERAEEMALSHLEPQNAVVLHEDKQYYPSAEEVYGSNVDIMVQEQDTQPLSQPIIEPIRHKRIAIETTNVPDTVYKKEFLFGLLTGTDDVRSFIVAGHLHHGKSALLDLLVYYTHPDTKPPKRRSLRYTDTHYLERERVMSIKSTPLTLAVSDMKGKTFAFQCIDTPGHVDFVDEVAAPMAISDGVVLVVDVIEGVMINTTRIIKHAILHDMPIVLVLNKVDRLILELRLPPNDAYHKLRHVIDEVNDNICQISKDLKYRVSPELGNVCFASCDLGYCFTLSSFAKLYIDRHGGIDVDLFSKRLWGDIYFDSKTRKFAKQSLDGSGVRSFVHFILEPLYKLHTLTISDEAEKLKKHLSSFQIYLKPKDYLLDPKPLLQLICASFFGFPVGFVNAVTRHIPSPRENAARKASQSYIGPINSSIGKAILEMSREESAPLVMHVTKLYNTVDANNFYAFARVYSGQVKKGQKVKVLGENYSLEDEEDMVVAHIAEICVPCARYRLHVDGAVAGMLVLLGGVDNSISKTATIVSDNLKDDPYIFRPIAHMSESVFKVAVEPHNPSELPKLLDGLRKTNKSYPLSITKVEESGEHTIFGTGEMYMDCLLYDLRTLYSEIEIRVSDPVARFCETAVDTSSIKCFSDTPNKKNRITMVVEPLEKGISNDIENGKVNINWPQKRISEFFQKNYDWDLLASRSIWAFGPDDRGTNILRDDTLSTDVDKNVLNSVKEYIKQGFQWGTREGPLCDETIRNVNFRLMDVVLAPEQIYRGGGQIIPTARRVCYSSFLTASPRLMEPVYMVEVHAPADSLPIIYDLLTRRRGHVLQDIPRPGSPLYLVRALIPVIDSCGFETDLRVHTQGQAMCQMVFDHWQVVPGDPLDKSIKPKPLEPARGSDLARDFLIKTRRRKGLVEDVSTTRYFDQEMIDSLKEAGVVLSL
B2: Cwf18 (protein, UniProt Q9UU80 1-142)
chain: MSSLDEVAESRKQRLAELRKIKQLENKTRDSQEVQKNVIEHRNYDPEVQAPKMGFVEPPNMIESVEALSKEIEEKTKRKIEEQSSVPVEELDLVTLRPKKPTWDLERDLKERMRSLETQNQNAIAFYIQQLISERAHSTEKA
B3: Prw1 (protein, UniProt O14021 1-431)
chain: MAVSAVPHPSKQAQASEEGINQEKCINEEYKIWKKNSPFLYDLIITRALEWPCMSLQWYPEQQIFAEHGYTEQKMFLGVRADVGKYLLAVASIQLPYLNQTVPPTTMEGASAGDESSLRVNISNLYSHPESVCSAKLMPQDDSCVATVGNYHNDVLVFDKESFESYSSASESPLKPKYRLTKHTQPCTSVCWNFLSKGTLVSGSQDATLSCWDLNAYNESDSASVLKVHISSHEKQVSDVRFHYKHQDLLASVSYDQYLHVHDIRRPDASTKPARSVHAHSGPIHSVAFNPHNDFILATCSTDKTIALWDLRNLNQRLHTLEGHEDIVTKISFSPHEEPILASTSADRRTLVWDLSRIGEDQPAEEAQDGPPELLFMHGGHTSCTIDMDWCPNYNWTMATAAEDNILQIWTPSRSIWGNEQLEEDATAYLS
B4: Cwf3 (protein, UniProt Q9P7R9 1-790)
chain: MGDVIPLKVNFDLINVDDEPFELELLRDPYSLKSWLRYIKTHEGSTLEKRVLLFERACSELPGSYKIWKSYLELRVAHVEHLNPYFHAEAFASVNDCFERSLILLHKMPVIWKLYLQFLMKQPNVTKIRCTFNSALRALPVTQHDDIWDMFTKYAEDIGGLFCIHVYRRYIQVEPRAIENYIEILCKLGLWNEAARQYEDILNRPVFLSAKRKSNYQIWLEFSELVVQHPDHTQNIDVEKVFRAGIKRFSDQAGKLWTYLAQYYIRIGDYEKARSTFYEGMNNIMTVRNFTIIFDAFVEFEEQWLSARVEASSGNANDELSIDFHMAWLEKILDKRPLYINDVLLRQNINNVDEWLRRVKFLEDDSEKVVQVYTDAIKNVNPKLAHGSLGKLFSEFARFYENFDDLEQSRIIFEKATHVPYKTVNELAQVWIDWAEMELRHQNFDAARKLIGDAVHAPRKSHISFFDESLSPQVRLHKSSKIWMYYLDLEESVGTIETTRKLYDRVFELKIATPQVVVNYANLLEENAYFEDSFKIYERGVALFSYPVAFELWNLYLTKFVKRYQGTHMERTRDLFEQALEGCPPEFSKSIYLLYADFEEKFGKAKRSISILEKAADKVKTADRLAIYNVLLVKVALNYGVLATRTVYEKAIESLSDSEVKDMCLRFAEMETKLGEIDRARLIYIHGSQYCDPRVETDYWKAWQEFEIRYGNPEETVKEMLRIKRSVQTKFSTDSLHIAKRAAKIESAAAPMDPMEQLEMEKSEGPKALAGFVLSKSNPQETSKITGEEN
B5: Cwf4 (protein, UniProt P87312 1-674)
chain: MTSEAPRVKNKNPAPIQISAEQLLREAVERQDVAFVPPKINITDLEELQEFQGRKRKEFEDAIRRNRLAMGHWMRYGQWELDQKEFARARSVFERALDVDSTYIPLWLKYIECEMKNRNINHARNLFDRAVTQLPRVDKLWYKYVYMEEMLGNITGCRQVFERWLKWEPDENCWMSYIRMERRYHENERARGIYERFVVVHPEVTNWLRWARFEEECGNAANVRQVYLAAIDALGQEFLNERFFIAFAKFEIRQKEYERARTIFKYAIDFMPRSKSMELYKEYTHFEKQFGDHLGVESTVLDKRRLQYEKLLKDSPYDYDTWLDLLKLEESAGDINTIRETYEKAIAKVPEVVEKNAWRRYVYIWLNYCLFEEIDVKDVDRARKVYQEALKLIPHKKFTFAKLWLMYAMFELRQRKIDVARKTLGRALGMCPKPKLFRGYIEFEDAIKQFDRCRILYEKWILYDPEACAPWLGYAALETKLGDSDRARALYNLAVNQPILETPELVWKAYIDFEFEEMEYGKARSIYQQLLRTAPHVKVWISFANFEIAHLEDDDEEPPNEEVASPTAVVRARNVFENALAHLRQQGLKEERVVLLEAWKQFEAMHGTEDTRKHVSSLMPQVVKKRRRLEDGSFEEYLDYLFPDTATDQGDKMRKMLELSRKWKEEMAKKKLEA
B6: Cwf5 (protein, UniProt O59800 1-354)
chain: MSHGPKGDINKQEWEDVEFPSICERCLGDNSYVRMTKEPLGQECKICSKPCTIFRWIKERGQKPGKTQICVGCARYKNCCQSCMLDLQFGLPIALRDAALKLVESGPTNDINREFFAQNQQRLLSNGETAYDSQEASAAARNLVKKVEKRELHSRPPKRKLDDVESKQILKEARASDASLNAERPLFPVKKIINGNVSLSINMEPPKDKKIASLFLIGVEDELADYKIRKHFEQYGPLKSVVCSHRAKCAFVNFKTRSSAEIAAAASPDGNVVIEGFRLKVQWGKPRSLGGPEGEVRNAKLADLVMRGSSHGNKTSQKSTIKNIENEDHENTKSPAVAIPIDPNQPRYRSQIPR
B7: Gpd3 (protein, UniProt O43026 1-335)
chain: MAIPKVGINGFGRIGRIVLRNAILTGKIQVVAVNDPFIDLDYMAYMFKYDSTHGRFEGSVETKGGKLVIDGHSIDVHNERDPANIKWSASGAEYVIESTGVFTTKETASAHLKGGAKRVIISAPSKDAPMFVVGVNLEKFNPSEKVISNASCTTNCLAPLAKVINDTFGIEEGLMTTVHATTATQKTVDGPSKKDWRGGRGASANIIPSSTGAAKAVGKVIPALNGKLTGMAFRVPTPDVSVVDLTVKLAKPTNYEDIKAAIKAASEGPMKGVLGYTEDSVVSTDFCGDNHSSIFDASAGIQLSPQFVKLVSWYDNEWGYSHRVVDLVAYTASKD
B8: Ini1 (protein, UniProt Q9UTB8 1-117)
chain: MSKHHPDLVLCRRQPGITVGKLCERCDEKCPICDSHVRPTTLVRICDECAFGSSQDRCIICGAPGVSDCYYCSECTRMEYDRDGCPRVINLGSSRTDWFYERKKFKNAGKEMPGATY
B9: Prp1 (protein, UniProt Q12381 1-906)
chain: MANFYPDFLNMQPPPNYVAGLGRGATGFTTRSDLGPAQELPSQESIKAAIEQRKSEIEEEEDIDPRYQDPDNEVALFATAPYDHEDEEADKIYQSVEEHLSKRRKSQREKQEQLQKEKYEKENPKVSSQFADLKRGLSTLTDEDWNNIPEPGDLTRKKRTKQPRRERFYATSDFVLASARNENQAISNFAVDTQAGTETPDMNGTKTNFVEIGAARDKVLGIKLAQASSNLTSPSTIDPKGYLTSLNSMVPKNANDLGDIRKARKLLQSVIETNPKHASGWVAAARLEEVANKLSQAQSLILKGCENCSRSEDVWLEAIRLHPAAEAKVIIANAVKKLPKSVTLWLEAEKLENQAQHKKRIIKKALEFNPTSVSLWKEAVNLEEEVDNARILLARAVELIPMSIDLWLALARLETYENAKKVLNKARQTIRTSHEVWIAAARLEEQQGNVSRVEKIMARGVSELQATGGMLQRDQWLSEAEKCETEGAVITAQAIINTCLGVGLDEEDQFDTWLDDAQSFIARKCIDCARAVFAFSLRVYPKSEKLWLRAVELEKLYGTTESVCSILEKAVESCPKAEILWLLYAKERKNVNDIAGARNILGRAFEYNSNSEEIWLAAVRIEFVNNENERARKLLARARIESGTERIWTKSISLERILDEKDRALQLLENALKIYPHYDKLYMMKGQIFEDKEQIELARDAYLAGTKVCPYSIPLWLLLAKLEEKQSVIRARVVFDRAKVKNPKNEFLWLELIKMELRAGNISQVRAALAKALQECPSSGLLWTEAIWLEPRAQRKTRATDALRKCEGNAHLLCTIARMLWLEKKADKARSWFLKAVKADQDNGDVWCWFYKYSLEAGNEDQQKEVLTSFETADPHHGYFWPSITKDIKNSRKTPQELLHLAINVL

target: T1, FLAG-HA-Rbm10 (S. pombe); assay: affinity purification with mass spectrometry; two-step purification (anti-FLAG beads, 3xFLAG peptide elution, then uMACS HA magnetic beads) of overexpressed FLAG-HA-Rbm10 from S. pombe lysate with Benzonase; three independent purifications; control purification from an untagged strain

Row | Binder | binding
1 | B1 | binds
2 | B2 | binds
3 | B3 | binds
4 | B4 | binds
5 | B5 | binds
6 | B6 | binds
7 | B7 | binds
8 | B8 | binds
9 | B9 | binds
